# Assay results taken from US20260191962A1, “NOVEL CHLORIN E6 ANALOGUES” (RMW CHO Group Limited, priority 2022, published 2026).
# Test system: SKOV3 ovarian cancer cells
# Test: Phototoxicity of chlorin e6 analogues in SKOV3 cells after 652 nm laser activation (AlamarBlue viability)
# Type: cell-based, Human
# Settings: calculated using phototoxicity IC90 vs dark toxicity IC10, SKOV3 cells
# Experimental: Samples were stored at 4° C. protected from light.
# All data are shown as mean±SD (where appropriate).
# To test for phototoxicity, cells incubated with chlorin e6 analogues (0-10 μM in DMSO) had culture media replaced after 24 hours (as above) and were then exposed to a 652 nm laser (Invion) with laser density at 50 mW/cm^2 for 5 mins (total 15 J/cm^2). Following activation, cells were cultured for a further 24 hours. Media was then replaced with fresh media containing AlamarBlue, and % viable cells remaining assessed as above. Controls included cells treated with chlorin e6 analogues but not activated by laser light; cells without chlorin e6 analogue treatment but with laser light; and untreated controls. All measurements were made in quadruplicate.
# To evaluate the therapeutic potential of chlorin e6 analogues, the therapeutic index (TI) was calculated. TI provides a quantitative measurement to describe relative drug safety, by comparing the drug concentration required for desirable effects versus the concentration resulting in undesirable off-target toxicity. TI was calculated using phototoxicity IC90 vs dark toxicity IC10.
row,Compound,Therapeutic Index
1,"C=Cc1c(C)c2cc3nc(c(CC(=O)O)c4[nH]c(cc5nc(cc1[nH]2)C(C)=C5CC)c(C)c4C(=O)NCCCS[C@@H]1O[C@H](CO)[C@@H](O)[C@H](O)[C@H]1O)[C@@H](CCC(=O)NCCCS[C@@H]1O[C@H](CO)[C@@H](O)[C@H](O)[C@H]1O)[C@@H]3C [Compound 1, chlorin e6 bis β-D-1-thioglucose propylamide conjugate 1]",25.94
2,"C=Cc1c(C)c2cc3nc(c(CC(=O)NCCCS[C@@H]4O[C@H](CO)[C@@H](O)[C@H](O)[C@H]4O)c4[nH]c(cc5nc(cc1[nH]2)C(C)=C5CC)c(C)c4C(=O)NCCCS[C@@H]1O[C@H](CO)[C@@H](O)[C@H](O)[C@H]1O)[C@@H](CCC(=O)NCCCS[C@@H]1O[C@H](CO)[C@@H](O)[C@H](O)[C@H]1O)[C@@H]3C [Compound 2, chlorin e6 tris β-D-1-thioglucose propylamide conjugate 2]",21.22
3,"C=Cc1c(C)c2cc3nc(c(CC(=O)N(C)CCC[P+](c4ccccc4)(c4ccccc4)c4ccccc4)c4[nH]c(cc5nc(cc1[nH]2)C(C)=C5CC)c(C)c4C(=O)OC)[C@@H](CCC(=O)OC)[C@@H]3C [Compound 8, Chlorin e6 N-(methylaminopropyl)triphenylphosphonium Bromide Dimethyl Ester]",246.89
